In paper PMC2718704:
These are yes or no findings as the source states them, for the method shown. In cells and extracts the contact can be indirect. Some entries that bind do so weakly or less than the wild type.

Biological target: NMDA subtype of glutamate receptors (NMDAr), NR2A-B subunits (rat (endogenous in hippocampus)) (UniProt Q00959+Q00960)
Experiment: co-IP; IP with the NMDAR2A&B (anti-NR2A-B) antibody from rat hippocampal extracts; bound fraction on western blots

- binding: binds
Substance: GRB2 (from UniProt P62994 1-217)
